# Some of the results follow. The calls rarely recur for the same compound in another form.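 Kinases were expressed as nanoluciferase fusions in K562 cells and luminescence was read every 4 h between 2 and 18 h as percent of control, DMSO set to 100% and a positive control to 0%. A time point counts as decreased when the signal drops significantly (2 sigma). The hit call is the authors' own, does not follow from the count of time points alone, and its rule is not shown.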
# Protein sequences, listed by entry. Tags and fused reporters are not part of them. Lines headed by an entry give the natural chain unless they say otherwise; changes in a name come on top.
# UniProt O75460: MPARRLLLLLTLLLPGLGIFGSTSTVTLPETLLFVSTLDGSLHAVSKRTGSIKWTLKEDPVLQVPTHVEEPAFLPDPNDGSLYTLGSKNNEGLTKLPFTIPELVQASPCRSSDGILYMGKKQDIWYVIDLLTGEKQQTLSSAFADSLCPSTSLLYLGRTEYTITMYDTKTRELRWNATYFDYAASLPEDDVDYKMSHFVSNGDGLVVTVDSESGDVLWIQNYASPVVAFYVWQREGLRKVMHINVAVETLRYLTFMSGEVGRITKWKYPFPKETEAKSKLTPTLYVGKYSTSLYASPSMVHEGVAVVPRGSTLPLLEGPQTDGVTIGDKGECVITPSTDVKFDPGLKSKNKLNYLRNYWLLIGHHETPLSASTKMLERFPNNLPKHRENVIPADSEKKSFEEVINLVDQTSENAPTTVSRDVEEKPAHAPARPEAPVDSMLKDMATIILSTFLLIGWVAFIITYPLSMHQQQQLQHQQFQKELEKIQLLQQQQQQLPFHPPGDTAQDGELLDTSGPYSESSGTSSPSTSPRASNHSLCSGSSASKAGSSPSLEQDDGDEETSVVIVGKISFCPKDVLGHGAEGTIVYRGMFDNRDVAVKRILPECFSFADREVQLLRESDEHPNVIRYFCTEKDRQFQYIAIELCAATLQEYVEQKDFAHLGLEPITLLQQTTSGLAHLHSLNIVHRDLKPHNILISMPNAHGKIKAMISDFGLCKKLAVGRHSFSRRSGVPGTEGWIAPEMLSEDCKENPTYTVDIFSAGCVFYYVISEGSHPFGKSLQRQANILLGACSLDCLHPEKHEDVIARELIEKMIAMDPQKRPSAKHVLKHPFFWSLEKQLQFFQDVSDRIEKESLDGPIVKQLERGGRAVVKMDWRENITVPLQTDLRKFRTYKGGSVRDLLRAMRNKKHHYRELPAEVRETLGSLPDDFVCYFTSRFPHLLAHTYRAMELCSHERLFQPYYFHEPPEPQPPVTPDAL
# UniProt P11362, whole entry, looked up: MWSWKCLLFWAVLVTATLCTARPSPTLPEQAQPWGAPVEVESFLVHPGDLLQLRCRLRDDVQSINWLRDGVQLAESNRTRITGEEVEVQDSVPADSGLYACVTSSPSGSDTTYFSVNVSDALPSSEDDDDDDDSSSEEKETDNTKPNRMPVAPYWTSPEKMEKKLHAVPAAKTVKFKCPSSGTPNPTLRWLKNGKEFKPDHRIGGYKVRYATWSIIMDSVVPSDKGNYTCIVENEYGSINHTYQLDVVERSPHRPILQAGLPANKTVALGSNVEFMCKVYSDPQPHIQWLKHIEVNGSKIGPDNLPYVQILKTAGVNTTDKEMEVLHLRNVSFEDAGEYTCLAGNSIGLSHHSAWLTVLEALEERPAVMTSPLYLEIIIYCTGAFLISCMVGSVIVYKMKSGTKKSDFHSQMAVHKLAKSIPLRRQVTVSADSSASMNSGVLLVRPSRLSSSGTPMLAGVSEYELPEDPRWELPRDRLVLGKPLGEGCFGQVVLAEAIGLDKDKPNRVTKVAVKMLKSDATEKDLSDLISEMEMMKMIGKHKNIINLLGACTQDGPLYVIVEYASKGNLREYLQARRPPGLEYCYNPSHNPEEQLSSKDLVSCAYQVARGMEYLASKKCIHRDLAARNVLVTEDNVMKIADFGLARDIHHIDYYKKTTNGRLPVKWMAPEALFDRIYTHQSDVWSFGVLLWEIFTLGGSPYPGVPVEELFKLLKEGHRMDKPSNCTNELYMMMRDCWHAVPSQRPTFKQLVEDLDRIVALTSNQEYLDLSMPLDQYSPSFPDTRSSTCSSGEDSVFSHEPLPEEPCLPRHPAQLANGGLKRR
# Molecular target: ERN1 (UniProt O75460)
# Assay: kinase-Nluc reporter destabilization hit call (1 = scored as downregulated) (binary); higher = compound decreases kinase abundance
# Settings: K562; 2-18 h
row,Compound,kinase-Nluc reporter destabilization hit call
1,Cc1ccccc1-n1c(Cn2cnc3c(N)ncnc32)nc2cccc(C)c2c1=O (10 µM),inactive: 0
2,C=C[C@H]1CN2CC[C@]3(C(=O)Nc4ccccc43)[C@@H]2C[C@@H]1/C(=C\OC)C(=O)OC [Corynoxeine] (2 µM),inactive: 0
3,O=C1C=CC[C@@H]2[C@H]3CCCN4CCC[C@@H](CN12)[C@@H]34 [Sophocarpine (monohydrate)] (2.5 µM),inactive: 0
4,O=c1ccc2cc(O[C@@H]3O[C@H](CO)[C@@H](O)[C@H](O)[C@H]3O)c(O)cc2o1 [Esculin] (10 µM),inactive: 0
5,O=c1[nH]c2ccccc2n1C1CCN(CCCC(c2ccc(F)cc2)c2ccc(F)cc2)CC1 [Pimozide] (2.5 µM),inactive: 0
6,C[C@@H]1CC[C@H]2[C@@H](C)C(=O)O[C@@H]3O[C@@]4(C)CC[C@@H]1[C@]32OO4 [Artemisinin] (10 µM),active: 1
7,COc1ccc2c(c1OC)C(OC)N(C)c1c-2ccc2cc3c(cc12)OCO3 (configuration not stated) [Angoline] (10 µM),inactive: 0
8,C[C@H]1CC[C@]2(NC1)O[C@H]1C[C@H]3[C@@H]4CC[C@H]5C[C@@H](O[C@@H]6O[C@H](CO)[C@H](O[C@@H]7O[C@H](CO)[C@@H](O)[C@H](O[C@@H]8OC[C@@H](O)[C@H](O)[C@H]8O)[C@H]7O[C@@H]7O[C@H](CO)[C@@H](O)[C@H](O)[C@H]7O)[C@H](O)[C@H]6O)CC[C@]5(C)[C@H]4CC[C@]3(C)[C@H]1[C@@H]2C [Tomatine] (2.5 µM),inactive: 0
9,CN(C)C(=O)c1ccc(Cn2c(C(=O)O)cc3c(Br)cc(Sc4ccc(Cl)c(Cl)c4)cc32)cc1 [Rheb inhibitor NR1] (10 µM),inactive: 0
10,COc1ccc(/C=C/c2cc(OC)c(OC)c(OC)c2)cc1 (2.5 µM),inactive: 0
11,C/C(O)=C(\C#N)C(=O)Nc1cc(Br)ccc1Br (10 µM),inactive: 0
12,Cc1n[nH]cc1-c1cc2nc([C@@H]3CC4CCN3CC4)[nH]c(=O)c2s1 [Simurosertib] (2.5 µM),inactive: 0
13,O=c1[nH]c2ccccc2n1C1CCN(Cc2ccc(-c3[nH]c4cc5ncnc5cc4nc3-c3ccccc3)cc2)CC1 [AKT inhibitor VIII] (2.5 µM),inactive: 0
14,CCOC(=O)c1c(/C(C#N)=C\N)c2ccc(Cl)c(Cl)c2n1C (10 µM),inactive: 0
15,O=C(N[C@@H](COc1ccc2[nH]c(=O)[nH]c2c1)c1ccccc1)c1cccn(Cc2ccc(F)c(F)c2)c1=O (2.5 µM),inactive: 0
16,CC1=C[C@]23C(=O)[C@@H](C=C(CO)[C@@H](O)[C@]2(O)[C@H]1O)[C@H]1[C@@H](C[C@H]3C)C1(C)C [Ingenol] (10 µM),inactive: 0
17,N#CC(C#N)=NNc1cccc(Cl)c1 (2.5 µM),inactive: 0
18,CC(=O)c1c(O)c(C)c(O)c(Cc2c(O)c3c(c(C(=O)/C=C/c4ccccc4)c2O)OC(C)(C)C=C3)c1O [Rottlerin] (2 µM),inactive: 0
19,CCCS(=O)(=O)Nc1ccc(F)c(-n2cc(-c3cncnc3)c3nc(N(C)C4CCN(CC)CC4)ccc32)c1F (2 µM),inactive: 0
20,O=[N+]([O-])/C=C/c1ccc2c(c1)OCO2 (2.5 µM),inactive: 0
21,CC(=O)O[C@H]1[C@H]2[C@@H](OC(=O)Cc3ccccc3)[C@@H](C)C[C@]2(OC(C)=O)C(=O)/C(C)=C/[C@@H]2[C@H](CC[C@@]13CO3)C2(C)C [Euphorbiasteroid] (10 µM),inactive: 0
22,Cc1[nH]ncc1-c1cc2nc([C@H]3CC4CCN3CC4)[nH]c(=O)c2s1 [(R)-Simurosertib] (10 µM),inactive: 0
23,N#CC(C#N)=Cc1ccc(O)c(O)c1 [Tyrphostin 23] (10 µM),inactive: 0
24,CC1C(=O)OC2C(O)C34C5OC(=O)C3(OC3OC(=O)C(O)C34C(C(C)(C)C)C5O)C12O (configuration not stated) [Ginkgolide C] (10 µM),inactive: 0
25,C[S+]([O-])/C=C/CCN=C=S (configuration not stated) [Sulforaphene] (10 µM),inactive: 0
26,N#CC(C#N)=Cc1ccc([N+](=O)[O-])c(O)c1 (10 µM),inactive: 0
27,Cn1cc(C2=C(c3cn(C4CCN(Cc5ccccn5)CC4)c4ccccc34)C(=O)NC2=O)c2ccccc21 [Enzastaurin] (10 µM),inactive: 0
28,O=C(/C=C/c1ccccc1)OC[C@H]1O[C@@H](O[C@@H]2OC=C[C@H]3[C@H](O)[C@@H]4O[C@]4(CO)[C@@H]23)[C@H](O)[C@@H](O)[C@@H]1O [Picroside I] (10 µM),inactive: 0

# Molecular target: FGFR1 (UniProt P11362)
# Assay: as above
# Settings: K562; 2-18 h
row,Compound,kinase-Nluc reporter destabilization hit call
1,Cc1ccccc1-n1c(Cn2cnc3c(N)ncnc32)nc2cccc(C)c2c1=O (10 µM),inactive: 0
2,C=C[C@H]1CN2CC[C@]3(C(=O)Nc4ccccc43)[C@@H]2C[C@@H]1/C(=C\OC)C(=O)OC [Corynoxeine] (2 µM),inactive: 0
3,O=C1C=CC[C@@H]2[C@H]3CCCN4CCC[C@@H](CN12)[C@@H]34 [Sophocarpine (monohydrate)] (2.5 µM),inactive: 0
4,O=c1ccc2cc(O[C@@H]3O[C@H](CO)[C@@H](O)[C@H](O)[C@H]3O)c(O)cc2o1 [Esculin] (10 µM),inactive: 0
5,O=c1[nH]c2ccccc2n1C1CCN(CCCC(c2ccc(F)cc2)c2ccc(F)cc2)CC1 [Pimozide] (2.5 µM),inactive: 0
6,C[C@@H]1CC[C@H]2[C@@H](C)C(=O)O[C@@H]3O[C@@]4(C)CC[C@@H]1[C@]32OO4 [Artemisinin] (10 µM),inactive: 0
7,COc1ccc2c(c1OC)C(OC)N(C)c1c-2ccc2cc3c(cc12)OCO3 (configuration not stated) [Angoline] (10 µM),inactive: 0
8,C[C@H]1CC[C@]2(NC1)O[C@H]1C[C@H]3[C@@H]4CC[C@H]5C[C@@H](O[C@@H]6O[C@H](CO)[C@H](O[C@@H]7O[C@H](CO)[C@@H](O)[C@H](O[C@@H]8OC[C@@H](O)[C@H](O)[C@H]8O)[C@H]7O[C@@H]7O[C@H](CO)[C@@H](O)[C@H](O)[C@H]7O)[C@H](O)[C@H]6O)CC[C@]5(C)[C@H]4CC[C@]3(C)[C@H]1[C@@H]2C [Tomatine] (2.5 µM),active: 1
9,CN(C)C(=O)c1ccc(Cn2c(C(=O)O)cc3c(Br)cc(Sc4ccc(Cl)c(Cl)c4)cc32)cc1 [Rheb inhibitor NR1] (10 µM),inactive: 0
10,COc1ccc(/C=C/c2cc(OC)c(OC)c(OC)c2)cc1 (2.5 µM),inactive: 0
11,C/C(O)=C(\C#N)C(=O)Nc1cc(Br)ccc1Br (10 µM),inactive: 0
12,Cc1n[nH]cc1-c1cc2nc([C@@H]3CC4CCN3CC4)[nH]c(=O)c2s1 [Simurosertib] (2.5 µM),inactive: 0
13,O=c1[nH]c2ccccc2n1C1CCN(Cc2ccc(-c3[nH]c4cc5ncnc5cc4nc3-c3ccccc3)cc2)CC1 [AKT inhibitor VIII] (2.5 µM),inactive: 0
14,CCOC(=O)c1c(/C(C#N)=C\N)c2ccc(Cl)c(Cl)c2n1C (10 µM),inactive: 0
15,O=C(N[C@@H](COc1ccc2[nH]c(=O)[nH]c2c1)c1ccccc1)c1cccn(Cc2ccc(F)c(F)c2)c1=O (2.5 µM),inactive: 0
16,CC1=C[C@]23C(=O)[C@@H](C=C(CO)[C@@H](O)[C@]2(O)[C@H]1O)[C@H]1[C@@H](C[C@H]3C)C1(C)C [Ingenol] (10 µM),inactive: 0
17,N#CC(C#N)=NNc1cccc(Cl)c1 (2.5 µM),inactive: 0
18,CC(=O)c1c(O)c(C)c(O)c(Cc2c(O)c3c(c(C(=O)/C=C/c4ccccc4)c2O)OC(C)(C)C=C3)c1O [Rottlerin] (2 µM),inactive: 0
19,CCCS(=O)(=O)Nc1ccc(F)c(-n2cc(-c3cncnc3)c3nc(N(C)C4CCN(CC)CC4)ccc32)c1F (2 µM),inactive: 0
20,O=[N+]([O-])/C=C/c1ccc2c(c1)OCO2 (2.5 µM),inactive: 0
21,CC(=O)O[C@H]1[C@H]2[C@@H](OC(=O)Cc3ccccc3)[C@@H](C)C[C@]2(OC(C)=O)C(=O)/C(C)=C/[C@@H]2[C@H](CC[C@@]13CO3)C2(C)C [Euphorbiasteroid] (10 µM),inactive: 0
22,Cc1[nH]ncc1-c1cc2nc([C@H]3CC4CCN3CC4)[nH]c(=O)c2s1 [(R)-Simurosertib] (10 µM),inactive: 0
23,N#CC(C#N)=Cc1ccc(O)c(O)c1 [Tyrphostin 23] (10 µM),inactive: 0
24,CC1C(=O)OC2C(O)C34C5OC(=O)C3(OC3OC(=O)C(O)C34C(C(C)(C)C)C5O)C12O (configuration not stated) [Ginkgolide C] (10 µM),inactive: 0
25,COc1ccc2c(c1)/C(=C/c1cnc[nH]1)C(=O)N2 (2.5 µM),inactive: 0
26,C[S+]([O-])/C=C/CCN=C=S (configuration not stated) [Sulforaphene] (10 µM),inactive: 0
27,N#CC(C#N)=Cc1ccc([N+](=O)[O-])c(O)c1 (10 µM),inactive: 0
28,Cn1cc(C2=C(c3cn(C4CCN(Cc5ccccn5)CC4)c4ccccc34)C(=O)NC2=O)c2ccccc21 [Enzastaurin] (10 µM),inactive: 0
29,O=C(/C=C/c1ccccc1)OC[C@H]1O[C@@H](O[C@@H]2OC=C[C@H]3[C@H](O)[C@@H]4O[C@]4(CO)[C@@H]23)[C@H](O)[C@@H](O)[C@@H]1O [Picroside I] (10 µM),inactive: 0

# From the supplement of paper PMC12823440, “Inhibitors supercharge kinase turnover through native proteolytic circuits” (Nature, 2025)
